Consider 2 substances from patent US4162248 (dated 1979).

A short description of this data set: general procedure: Boc solid-phase peptide synthesis; O-CH2-phi-resin, 0.43 mmole peptide per g.

Turning to “Cyclo[Asn-Phe-Phe-D-Trp-(ε-INOC)Lys-Thr-Phe-Thr]”, the step yield (late stage modification step) came to 91.5%. Where the note is “cyclisation step”, “Cyclo[Asn-Phe-Phe-D-Trp-(ε-INOC)Lys-O-Bzl-Thr-Phe-O-Bzl-Thr]” came in with a cyclisation yield of 98%.
